This experiment concerns the target CARD8^CARD D511K (P446-L537, with A452C) (human) (UniProt Q9Y2G2). The experiment is described as follows: negative-stain EM of filaments formed in vitro.

Protein sequences, listed by entry. Tags and fused reporters are not part of them. Lines headed by an entry give the natural chain unless they say otherwise; changes in a name come on top. Chains listed by the source or under a name are the forms on record and can include a tag or linker.
CARD8^CARD D511K (P446-L537, with A452C) (Q9Y2G2-5, form named): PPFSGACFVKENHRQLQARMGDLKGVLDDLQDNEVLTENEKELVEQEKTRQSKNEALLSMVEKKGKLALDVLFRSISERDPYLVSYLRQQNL

No constants are given. Whether binding was seen depends on the method and setting.

On to “CARD8^CARD D511K (P446-L537, with A452C) (from UniProt Q9Y2G2-5 446-537) (domain or fragment)”, for which the binding entry is reported as “no binding”.
